Percent effect of library compounds

The chains behind the UniProt entries cited, without tags or fusion partners. Residues count along the entry.
UniProt P9WFT3, whole entry: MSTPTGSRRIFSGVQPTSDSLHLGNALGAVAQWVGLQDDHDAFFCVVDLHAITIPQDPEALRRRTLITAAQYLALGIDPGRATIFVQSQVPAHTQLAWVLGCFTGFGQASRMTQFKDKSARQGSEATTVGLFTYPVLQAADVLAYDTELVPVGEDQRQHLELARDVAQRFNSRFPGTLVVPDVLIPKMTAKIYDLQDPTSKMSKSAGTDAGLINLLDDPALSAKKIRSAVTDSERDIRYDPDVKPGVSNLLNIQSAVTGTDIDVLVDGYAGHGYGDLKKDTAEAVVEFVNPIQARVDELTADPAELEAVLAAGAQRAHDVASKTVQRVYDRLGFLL
UniProt Q4DA54, 1-478: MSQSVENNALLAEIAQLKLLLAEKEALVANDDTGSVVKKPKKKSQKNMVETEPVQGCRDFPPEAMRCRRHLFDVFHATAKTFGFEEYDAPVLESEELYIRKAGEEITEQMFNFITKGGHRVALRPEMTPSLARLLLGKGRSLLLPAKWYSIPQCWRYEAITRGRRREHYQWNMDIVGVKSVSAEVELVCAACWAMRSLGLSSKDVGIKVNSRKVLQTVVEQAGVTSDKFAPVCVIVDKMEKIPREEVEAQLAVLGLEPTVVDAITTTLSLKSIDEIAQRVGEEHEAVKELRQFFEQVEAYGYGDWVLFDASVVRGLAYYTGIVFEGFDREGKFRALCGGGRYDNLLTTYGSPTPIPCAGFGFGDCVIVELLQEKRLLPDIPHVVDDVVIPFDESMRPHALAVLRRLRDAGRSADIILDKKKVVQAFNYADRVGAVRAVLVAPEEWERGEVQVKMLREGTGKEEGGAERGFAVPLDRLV
UniProt Q8IDJ8, 1-583: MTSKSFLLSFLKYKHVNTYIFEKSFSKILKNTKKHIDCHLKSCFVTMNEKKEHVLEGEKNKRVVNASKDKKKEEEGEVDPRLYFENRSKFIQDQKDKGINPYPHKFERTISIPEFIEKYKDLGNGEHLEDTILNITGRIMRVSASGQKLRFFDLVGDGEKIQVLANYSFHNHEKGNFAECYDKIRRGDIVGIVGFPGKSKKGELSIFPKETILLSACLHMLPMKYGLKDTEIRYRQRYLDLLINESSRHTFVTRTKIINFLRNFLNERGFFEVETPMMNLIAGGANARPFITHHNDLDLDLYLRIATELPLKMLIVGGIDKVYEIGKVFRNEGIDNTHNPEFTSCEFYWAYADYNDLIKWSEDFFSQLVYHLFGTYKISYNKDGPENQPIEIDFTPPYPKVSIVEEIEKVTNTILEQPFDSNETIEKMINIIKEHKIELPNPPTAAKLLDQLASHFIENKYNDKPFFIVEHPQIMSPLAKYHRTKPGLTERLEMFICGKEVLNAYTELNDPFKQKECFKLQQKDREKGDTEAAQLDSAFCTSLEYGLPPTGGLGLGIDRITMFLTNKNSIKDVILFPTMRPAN
UniProt P9WNZ1, whole entry: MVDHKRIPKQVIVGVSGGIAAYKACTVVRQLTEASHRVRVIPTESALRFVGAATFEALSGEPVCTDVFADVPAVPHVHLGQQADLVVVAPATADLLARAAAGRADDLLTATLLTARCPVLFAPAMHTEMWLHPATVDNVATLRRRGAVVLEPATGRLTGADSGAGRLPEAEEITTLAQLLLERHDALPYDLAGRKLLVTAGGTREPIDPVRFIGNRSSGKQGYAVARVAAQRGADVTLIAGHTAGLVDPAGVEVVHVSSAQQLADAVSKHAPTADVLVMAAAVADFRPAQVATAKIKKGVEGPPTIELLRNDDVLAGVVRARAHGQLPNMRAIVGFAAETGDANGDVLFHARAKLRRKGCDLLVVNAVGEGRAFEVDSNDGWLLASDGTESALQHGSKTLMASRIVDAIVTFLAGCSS
UniProt I6X8D2, whole entry: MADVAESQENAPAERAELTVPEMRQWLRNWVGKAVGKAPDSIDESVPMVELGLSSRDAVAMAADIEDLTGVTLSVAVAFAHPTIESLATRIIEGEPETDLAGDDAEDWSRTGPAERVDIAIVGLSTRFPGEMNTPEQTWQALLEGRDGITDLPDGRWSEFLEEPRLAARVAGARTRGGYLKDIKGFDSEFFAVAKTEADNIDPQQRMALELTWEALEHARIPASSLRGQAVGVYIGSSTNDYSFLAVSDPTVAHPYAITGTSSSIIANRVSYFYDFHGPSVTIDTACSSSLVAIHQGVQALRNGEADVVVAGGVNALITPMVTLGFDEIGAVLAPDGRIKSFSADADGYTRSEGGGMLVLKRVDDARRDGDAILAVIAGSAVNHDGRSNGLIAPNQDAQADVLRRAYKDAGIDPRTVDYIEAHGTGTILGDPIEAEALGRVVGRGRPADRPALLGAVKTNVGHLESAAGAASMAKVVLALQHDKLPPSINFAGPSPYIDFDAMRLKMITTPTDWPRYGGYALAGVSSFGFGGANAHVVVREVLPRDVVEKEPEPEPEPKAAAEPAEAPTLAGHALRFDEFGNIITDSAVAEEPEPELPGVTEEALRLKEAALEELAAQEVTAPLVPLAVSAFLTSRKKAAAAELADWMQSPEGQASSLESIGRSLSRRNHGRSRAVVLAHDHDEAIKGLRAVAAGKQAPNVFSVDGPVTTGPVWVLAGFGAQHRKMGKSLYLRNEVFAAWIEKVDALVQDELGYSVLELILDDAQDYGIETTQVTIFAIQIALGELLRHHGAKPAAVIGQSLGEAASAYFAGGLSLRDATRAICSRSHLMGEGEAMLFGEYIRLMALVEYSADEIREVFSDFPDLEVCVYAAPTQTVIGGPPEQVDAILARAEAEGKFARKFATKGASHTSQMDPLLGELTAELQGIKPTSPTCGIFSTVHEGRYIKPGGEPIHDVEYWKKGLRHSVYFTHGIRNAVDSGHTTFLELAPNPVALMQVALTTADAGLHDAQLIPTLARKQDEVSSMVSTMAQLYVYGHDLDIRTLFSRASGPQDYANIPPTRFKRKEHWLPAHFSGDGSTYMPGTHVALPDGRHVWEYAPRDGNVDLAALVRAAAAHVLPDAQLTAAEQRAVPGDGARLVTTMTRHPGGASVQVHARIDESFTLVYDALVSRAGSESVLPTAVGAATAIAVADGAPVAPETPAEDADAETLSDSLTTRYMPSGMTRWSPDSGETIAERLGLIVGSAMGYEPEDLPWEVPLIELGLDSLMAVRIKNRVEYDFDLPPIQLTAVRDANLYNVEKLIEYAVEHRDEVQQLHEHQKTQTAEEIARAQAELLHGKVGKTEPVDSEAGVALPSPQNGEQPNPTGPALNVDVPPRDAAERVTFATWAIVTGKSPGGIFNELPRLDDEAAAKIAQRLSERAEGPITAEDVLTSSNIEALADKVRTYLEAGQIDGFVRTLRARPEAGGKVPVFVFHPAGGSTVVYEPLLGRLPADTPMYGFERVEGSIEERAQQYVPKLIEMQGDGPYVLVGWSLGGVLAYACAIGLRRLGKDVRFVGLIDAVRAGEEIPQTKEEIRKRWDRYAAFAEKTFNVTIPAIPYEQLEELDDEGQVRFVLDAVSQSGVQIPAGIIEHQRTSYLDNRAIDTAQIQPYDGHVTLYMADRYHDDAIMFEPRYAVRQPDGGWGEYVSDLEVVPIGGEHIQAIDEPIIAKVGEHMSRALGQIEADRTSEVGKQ

Measurements from “University of Dundee, Small-Polar-MMV Screening Library” (2021), ChEMBL document CHEMBL3988442.

Values are the deposited “Percent Effect”, in %. The controls that fix the scale are not given in the record; negative values are as filed. Compounds were drawn at random from those tested, without regard to their results.

A: 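Enzyme assay of tryptophanyl-tRNA synthetase; the read-out is not stated. Target: Tryptophan-tRNA ligase, Mycobacterium tuberculosis (UniProt P9WFT3). Compounds at 10 µM. Higher most likely means stronger inhibition; the record gives no direction and few retests gave an IC50. Size under these conditions: about 65,000 compounds, about 64 of them at 50% or above in at least one test.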
B: 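Histidine-tRNA ligase, Trypanosoma cruzi CL Brener (UniProt Q4DA54). Enzyme assay of histidyl-tRNA synthetase; the read-out is not stated. Compounds at 30 µM. Higher reads as stronger inhibition (inferred: compounds with an IC50 in retests scored well above the rest). About 69,000 compounds were tested under these conditions; 0.045% (about 31) showed 50% or more at least once.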
C: 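Enzyme assay of the cytosolic lysyl-tRNA synthetase in 384-well plates, read by luminescence. Target: Lysine-tRNA ligase, Plasmodium falciparum 3D7 (UniProt Q8IDJ8). Concentration: 30 µM. Higher reads as stronger inhibition, judged from the few compounds that gave an IC50. Of about 69,000 compounds tested this way, about 49 (0.071%) reached 50% or more in at least one test.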
D: 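Coenzyme A biosynthesis protein CoaBC, Mycobacterium tuberculosis (UniProt P9WNZ1). Enzyme assay of CoaBC with a phosphate dye (Biomol Green) read at 650 nm. Compounds at 30 µM. Higher reads as stronger inhibition, judged from the few compounds that gave an IC50. Most strong results did not repeat in a second test. Size under these conditions: about 67,000 compounds, about 40 of them at 50% or above in at least one test.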
E: 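Enzyme assay of the thioesterase domain of polyketide synthase 13; the read-out is not stated. Target: Polyketide synthase Pks13, Mycobacterium tuberculosis (UniProt I6X8D2). Compounds at 30 µM. The record gives no direction; the compounds picked for IC50 retests had high values, so higher reads as stronger inhibition. Of about 67,000 compounds tested this way, about 300 (0.46%) reached 50% or more in at least one test.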
F: 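Cell assay of Leishmania donovani living inside macrophages; the read-out is not stated. Compounds at 30 µM. Higher reads as stronger inhibition (inferred: compounds with an IC50 in retests scored well above the rest). Of about 69,000 compounds tested this way, about 1,000 (1.5%) reached 50% or more in at least one test.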

- O=C1O[C@@H]2CN(Cc3ccccc3F)C[C@@H]2N1CCCN1CCOCC1 : A: 7.725%; B: 10.23%; C: 2.513%; D: -8.351%; E: 16.1%
- [H][C@]12CC[C@]([H])(CN(Cc3ccccn3)C1)N(CC(=O)Nc1ccn(C)n1)C2 : F: 30.34%
- Cn1ccc(CN2CCC(NC(=O)C3CCCCC3)CC2)cc1=O : A: -5.348%; B: 9.091%; C: 0.3681%; D: 5%; E: -6.322%; F: 26.68%
- Cc1nc(CN(CCc2ccccc2)C2CCN(C)CC2)no1 : A: -4.052%; B: 0.9662%; C: 6.594%; D: 5.093%; E: -13.35%; F: 6.902%
- O=C(CN1C(=O)CCNC1=O)N1CCOC(c2ccc(F)cc2)C1 (stereo not given) : A: 2.437%; B: 1.064%; C: -0.5835%; D: 2.386%; E: -28.5%; F: 29.8%
- CC1c2cc(F)ccc2CCN1CCCS(=O)(=O)C(C)C (stereo not given) : A: -0.867%; B: 8.021%; C: -2.159%; D: -2.609%; E: -32.63%; F: 24.7%
- CCNC(=O)O[C@H]1COCCN(c2nc3ccccc3s2)C1 : A: -2.184%; B: 2.97%; C: 7.84%; D: 8.804%; E: -22.46%; F: 25.31%
- O=C(NCc1cccs1)NCC(O)c1ccoc1 (stereo not given) : A: 1.455%; B: 5%; C: -0.3387%; D: -2.179%; E: -9.119%; F: -14.9%
- COc1ccc(CN2CCn3cc(Cn4cccn4)nc3C2)cc1 : A: -8.269%; B: 8.696%; C: 3.21%; D: 5.45%; E: -9.605%
- O=C(O)C(F)(F)F.c1cnc(N2CCOC3(CCN(CC4CCOC4)CC3)C2)nc1 (stereo not given) : F: 38.06%
- COCC(=O)N1CCN(S(=O)(=O)c2ccccc2)[C@@H](C(=O)OC)C1 : A: -7.907%; B: 11.88%; C: 6.47%; D: 9.707%; E: -35.9%; F: 3.518%
- CN1CCN(C(=O)c2ccc(=O)n(C)c2)c2ccccc21 : A: -5.345%; B: 1.916%; C: 5.705%; D: 12.48%; E: -3.551%; F: 2.816%
- O=C(CSc1ccncc1)N1C[C@H]2CC[C@@H]1CN(Cc1cccnc1)C2 : A: 2.067%; B: 4.132%; C: 1.287%; D: 10.02%; E: -10.18%
- CC(=O)N1CCCN(C(=O)NC(C)c2csc3ccccc23)CC1 (stereo not given) : A: -3.667%; B: 4.762%; C: 11.12%; D: 2.037%; E: -15.37%; F: 2.478%
- O=C1CCN(C(=O)C2(c3ccc(F)cc3)CCCC2)CCN1 : A: 2.808%; B: 2.564%; C: 4.678%; D: -6.211%; E: -24.89%; F: 28.89%
- [H][C@]12CC[C@]([H])(CN(CC(=O)N(C)C)C1)N(Cc1ccccc1OCCO)C2 : F: 13.45%

For reference, 2 entries once more:

{"compound": "O=C(CSc1ccncc1)N1C[C@H]2CC[C@@H]1CN(Cc1cccnc1)C2", "A": 2.067, "B": 4.132, "C": 1.287, "D": 10.02, "E": -10.18}
{"compound": "O=C(NCc1cccs1)NCC(O)c1ccoc1", "stereo": "stereo not given", "A": 1.455, "B": 5, "C": -0.3387, "D": -2.179, "E": -9.119, "F": -14.9}